# Measurements: patent US20140099332A1 (IMMUNOGEN, published 2014)
# Amino acid sequences for entries named in this document (tags omitted). A change or cut given only in a name is not applied to a line headed by its entry.
# UniProt P15328: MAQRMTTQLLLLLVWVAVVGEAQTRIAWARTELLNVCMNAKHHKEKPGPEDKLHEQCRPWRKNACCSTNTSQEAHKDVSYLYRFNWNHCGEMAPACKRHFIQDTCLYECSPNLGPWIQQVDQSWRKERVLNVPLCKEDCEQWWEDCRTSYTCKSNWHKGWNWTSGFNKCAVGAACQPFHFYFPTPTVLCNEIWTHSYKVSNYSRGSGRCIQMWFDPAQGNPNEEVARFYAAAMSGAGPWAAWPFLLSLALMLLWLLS
# Results are given in words; binding and its absence hold for the method and conditions named. Some entries that bind do so weakly or less than the wild type.
# Key:
# [1] = biological target: T1, human FolR1-Fc fusion protein (human; mouse, UniProt P15328 25-233); assay: sandwich ELISA, FR1-9 capture and biotinylated FR1-13 detection; 60nM FOLR1-Fc sample serially diluted
# T1 construct: The construct encodes the 233 amino acids from the N-terminal signal peptide to just upstream of the GPI linkage site; also called huFOLR1-Fc; human folate receptor 1 Fc fusion molecule; not shown: residues encoded by the Pst1 to BamHI oligonucleotide linker
# [2] = biological target: T1, human FolR1-Fc fusion protein; assay: sandwich ELISA, muFR1-9 capture and biotinylated muFR1-13 detection
# [3] = biological target: T1, human FolR1-Fc fusion protein; assay: FOLR1 sandwich ELISA of Example 7, serially diluted Folr1-Fc (30nM) standard; x axis is a dilution step, no concentration
# [4] = biological target: T1, human FolR1-Fc fusion protein; assay: sandwich ELISA (FOLR1 ELISA): clone coated on the plate as capture antibody, FOLR-Fc fusion titrated, format as in FIG. 1
# Method: The 40 clones were alternatively coated onto the assay plate in place of muFR1-9 in the diagram, and the resulting binding curves were analyzed shown in FIG. 5. Antibodies that contained the lowest half-maximal response (EC50) were considered to have the highest binding specificity to FOLR1, and thus were chosen as the top candidates for the assay.
# [5] = biological target: FOLR1 (antigen of the screening ELISAs, form not stated) (human) (UniProt P15328); assay: sandwich ELISA
# [6] = biological target: FOLR1 (antigen of the screening ELISAs, form not stated) (human) (UniProt P15328); assay: competition ELISA: serial concentrations of competing murine clone against a constant concentration of (biotinylated) muFR1-13
binder,measurement,setting,value
"muFR1-9 (antibody, mouse IgG1, kappa, V domains shown, Murine monoclonal purified from hybridoma supernatant; Capture antibody of the sandwich ELISA; also called murine FR1-9) VH: QVQLVESGGGLVQPGGSRKLSCAASGFTFSSFGMHWVRQAPEKGLEWVAYISSGSSTFYYADTVKGRFTISRDNPKNTLFLQMTSLRSEDTAMYYCAKELTGTFAYWGQGTLVTVSA VL: DIVLTQSPATLSVTPGDSVSLSCRASQSINNNLHWYQQKSHESPRLLIKYASQSISGIPSRFSGSGSGTDFTLSINSVETEDFGMYFCQQSNSWPQVTFGAGTKLELKR",binding,[1],binds
same,binding,[2],binds
same,binding,[3],binds
same,binding,[4],binds
same,binding,[5],binds
"muFR1-13 (antibody, mouse IgG2b, kappa, V domains shown, Murine monoclonal purified from hybridoma supernatant; also called muFR1-13b (biotinylated); Biotinylated FR1-13) VH: QVQLKESGPDLVAPSQSLSITCTVSGFSLSRYSVHWIRQPPGKGLEWLGMIWSGGNTDYNSVFKSRLNITKDNSKSQVFLKMNSLQTDDTAIYYCATFDGKVSWFAYWGQGTLVTVSA VL: SIVMTQTPKFLLVSTGDRFTITCKASQSVSNDVLWYQQKPGQSPKLLIYYAYNRYSGVPDRFTGSGYGTDFTFTITTVQSEDLAVYFCQQDHSSPFTFGSGTKLEIKR",binding,[6],binds
"muFR1-53 (antibody, mouse IgG1, kappa, V domains shown, The full-length chains differ from the variable domains by shifted residues) VH: QVQLQQSGPELVRPGASVKMSCKASGYKFTDYDISWVLQRTGQGLEWIGEIYPGSGRTYYNERFKGKATLTADKSSNTVYMQLSSLTSEDSAVYFCASSYYYGTNSPFAYWGQGTTLTVSS VL: DIQMTQTTSSLSASLGDRVTISCRASQDISNYLHWYQRKPDGTVKLLVYYTSRLQSGVPSRFSGSGSGTDYSLTISNLEQEDIATYFCQQGNSLPPTFGSGTKLEIKR",binding,[5],binds
"muFR1-62 (antibody, mouse IgG1, kappa, V domains shown, Murine monoclonal; The full-length light chain differs from the VL by shifted residues) VH: QVQLQQSGAELARPGASVKMSCKASGYTFTTYTMHWVKQRPGQGLEWIAYINPTSGYNNYNQKFKEKATLTADKSSSTAYMQLTSLTSEDSAVYYCASGGAYGRRPVDYWGQGTSVTVSS VL: DIVMTQSQKFMSISVGDRVSVTCKASQNVGTNVAWYQQKPGQSPKTLIYSASSRYSGVPDRFTGSGSGTDFTLTISNVQSEDLADYFCHQYNSYPYTFGGGTKLEIKR",binding,[5],binds
